# Where two headings read alike, the source gives them in different places.
# How the values were obtained:
# Assay in all cases: cells
# [1] = test system: MDA-MB-468 cells; conditions: Homo sapiens, read-out: Cell Viability IC50 (μM) ± SEM
# Experimental: (§1) Cells in media with vehicle treatment are considered control wells. MTT (3-(4,5-dimethyl-2-thiazolyl)-2,5-diphenyl-2H-tetrazolium bromide) was prepared as a stock solution of 5 mg/mL in 1× phosphate-buffered saline (PBS, pH 7.2). At the end of the drug treatment period (24 or 48 or 72 hours), 10 μL of MTT solution was added to each well. After incubation for 4 hours at 37° C., 100 μL of solubilizing buffer (10% sodium dodecyl sulfate dissolved in 0.01 N HCl) was added to each well. After a 15-minute incubation at 37° C., the 96-well plate was read by a plate reader at 590 nm for absorbance density values to determine the cell viability. The cell viability (percentage of control) is calculated by using the following formula: (OD of treated well (−blank))/(mean OD control well (−blank))×100. […] Drug effects on these cells were determined in quadruplicate wells in three independent experiments.
# [2] = test system: MDA-MB-231 cells; conditions: Homo sapiens, read-out: Cell Viability IC50 (μM) ± SEM
# Experimental: as §1
# [3] = test system: T47D cells; conditions: Homo sapiens, read-out: Cell Viability IC50 (μM) ± SEM
# Experimental: as §1
# [4] = test system: MDA-MB-231, MDA-MB-468, and T47D cells; conditions: Homo sapiens, 72 h, read-out: IC50 dose
# Experimental: as §1
compound,measurement,setting,value
"CC(C)NCC(O)COc1cccc2ccccc12 (stereo not shown) [PRO, propranolol]",IC50,"[1]; MDA-MB-468, 24 h",120.5 ± 0.86 µM
same,IC50,"[1]; MDA-MB-468, 48 h",120.5 ± 0.98 µM
same,IC50,"[1]; MDA-MB-468, 72 h",100 ± 1.04 µM
same,IC50,"[2]; MDA-MB-231, 24 h",100.5 ± 0.38 µM
same,IC50,"[2]; MDA-MB-231, 48 h",100.5 ± 0.29 µM
same,IC50,"[2]; MDA-MB-231, 72 h",100.2 ± 0.97 µM
same,IC50,[3]; 24 h,100.2 ± 0.74 µM
same,IC50,[3]; 48 h,105 ± 1.69 µM
same,IC50,[3]; 72 h,100.7 ± 0.45 µM
same,IC50,[4],100 to 120 µM

# — patent US20240390490A1, “PHARMACEUTICAL COMPOSITIONS FOR THE TREATMENT OF CANCERS” (Rutgers, The State University of New Jersey, priority 2021, published 2024)
